Test results as given in article PMC10884747.
These are yes or no findings as the source states them, for the method shown. Binding seen in cells or lysates may run through a third protein. Some results given as binding are weak or reduced against the parent protein; the word gives no strength.

The chains behind the UniProt entries cited, without tags or fusion partners.
UniProt O95758: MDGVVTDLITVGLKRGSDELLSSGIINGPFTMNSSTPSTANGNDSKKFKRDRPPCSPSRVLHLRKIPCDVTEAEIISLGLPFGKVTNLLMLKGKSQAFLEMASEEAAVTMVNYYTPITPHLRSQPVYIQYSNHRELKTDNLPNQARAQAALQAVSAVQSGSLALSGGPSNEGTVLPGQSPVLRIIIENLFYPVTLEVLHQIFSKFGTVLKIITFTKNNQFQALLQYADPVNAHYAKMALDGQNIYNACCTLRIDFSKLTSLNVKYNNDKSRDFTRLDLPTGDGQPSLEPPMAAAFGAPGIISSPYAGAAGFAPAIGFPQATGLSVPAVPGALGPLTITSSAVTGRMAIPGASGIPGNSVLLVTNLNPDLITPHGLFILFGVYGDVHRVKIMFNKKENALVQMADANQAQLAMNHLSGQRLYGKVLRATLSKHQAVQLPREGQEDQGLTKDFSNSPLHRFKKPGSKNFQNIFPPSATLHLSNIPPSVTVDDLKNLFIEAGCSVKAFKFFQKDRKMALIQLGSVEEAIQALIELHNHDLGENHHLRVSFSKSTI
UniProt O00425: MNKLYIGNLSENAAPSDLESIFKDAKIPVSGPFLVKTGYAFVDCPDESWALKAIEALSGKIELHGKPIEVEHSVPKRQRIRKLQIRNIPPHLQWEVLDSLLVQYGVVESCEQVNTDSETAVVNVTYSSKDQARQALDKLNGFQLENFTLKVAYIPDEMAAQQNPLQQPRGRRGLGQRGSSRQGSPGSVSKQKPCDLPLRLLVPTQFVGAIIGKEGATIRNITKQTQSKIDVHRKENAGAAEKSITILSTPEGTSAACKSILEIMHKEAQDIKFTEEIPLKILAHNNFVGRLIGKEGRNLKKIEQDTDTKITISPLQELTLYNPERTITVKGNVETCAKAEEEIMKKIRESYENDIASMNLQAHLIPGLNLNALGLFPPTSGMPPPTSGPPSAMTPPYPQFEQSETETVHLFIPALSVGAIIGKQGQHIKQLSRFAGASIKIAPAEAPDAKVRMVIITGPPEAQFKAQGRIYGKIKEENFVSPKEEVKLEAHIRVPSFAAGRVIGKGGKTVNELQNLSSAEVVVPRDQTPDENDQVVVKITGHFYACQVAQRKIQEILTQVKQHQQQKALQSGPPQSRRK

Experiments:
[1] = target: FLAG-tagged PTBP3 (exogenous) (UniProt O95758); assay: co-IP; immunoprecipitation with anti-Flag antibody (PTBP3 FLAG tag) from 786-O and ACHN cells, anti-IgG as negative control; Western blot for IGF2BP3
[2] = target: Polypyrimidine tract-binding protein 3 (PTBP3), endogenous (human (endogenous in 786-O and ACHN)) (UniProt O95758); assay: co-IP; immunoprecipitation with anti-PTBP3 or anti-IGF2BP3 antibody from 786-O and ACHN cells, anti-IgG as negative control; endogenous proteins, Western blot

Insulin-like growth factor 2 (IGF2) mRNA-binding protein 3 (IGF2BP3), endogenous (from UniProt O00425 1-579)
binding [1]: binds | binding [2]: binds
